# Reference: article PMC10001202, “Preparation, Identification and Preliminary Application of the Fenvalerate Monoclonal Antibody in Six Kinds of Dark Tea” (Foods, 2023)
# Assay: recovery of fenvalerate from spiked dark tea samples by ELISA with McAb secreted by 1B6
# [1] = Enshi dark tea, spiked 25 ng/mL
# [2] = Enshi dark tea, spiked 50 ng/mL
# [3] = Enshi dark tea, spiked 100 ng/mL
# [4] = Qingzhuan tea, spiked 100 ng/mL
# [5] = Selenium-enriched Enshi dark tea, spiked 25 ng/mL
# [6] = Selenium-enriched Enshi dark tea, spiked 50 ng/mL
# [7] = Selenium-enriched Enshi dark tea, spiked 100 ng/mL
smiles,measurement,setting,value
CC(C)C(C(=O)OC(C#N)c1cccc(Oc2ccccc2)c1)c1ccc(Cl)cc1 (centres unmarked) [Fenvalerate],Measured,[1],18.3 ng/mL
same,Recovery,[1],73.2%
same,Measured,[2],47.2 ng/mL
same,Recovery,[2],94.4%
same,Measured,[3],96.8 ng/mL
same,Recovery,[3],96.8%
same,Measured,"Fu Brick tea, spiked 25 ng/mL",21.1 ng/mL
same,Recovery,"Fu Brick tea, spiked 25 ng/mL",84.4%
same,Measured,"Fu Brick tea, spiked 50 ng/mL",48.3 ng/mL
same,Recovery,"Fu Brick tea, spiked 50 ng/mL",96.6%
same,Measured,"Fu Brick tea, spiked 100 ng/mL",97.5 ng/mL
same,Recovery,"Fu Brick tea, spiked 100 ng/mL",97.5%
same,Measured,"Liupao tea, spiked 25 ng/mL",22.2 ng/mL
same,Recovery,"Liupao tea, spiked 25 ng/mL",88.8%
same,Measured,"Liupao tea, spiked 50 ng/mL",46.5 ng/mL
same,Recovery,"Liupao tea, spiked 50 ng/mL",93%
same,Measured,"Liupao tea, spiked 100 ng/mL",96.7 ng/mL
same,Recovery,"Liupao tea, spiked 100 ng/mL",96.7%
same,Measured,"Pu‘er tea, spiked 25 ng/mL",19.2 ng/mL
same,Recovery,"Pu‘er tea, spiked 25 ng/mL",76.8%
same,Measured,"Pu‘er tea, spiked 50 ng/mL",45.1 ng/mL
same,Recovery,"Pu‘er tea, spiked 50 ng/mL",90.2%
same,Measured,"Pu‘er tea, spiked 100 ng/mL",99.8 ng/mL
same,Recovery,"Pu‘er tea, spiked 100 ng/mL",99.8%
same,Measured,"Qingzhuan tea, spiked 25 ng/mL",21.8 ng/mL
same,Recovery,"Qingzhuan tea, spiked 25 ng/mL",87.2%
same,Measured,"Qingzhuan tea, spiked 50 ng/mL",44.8 ng/mL
same,Recovery,"Qingzhuan tea, spiked 50 ng/mL",89.6%
same,Measured,[4],98.5 ng/mL
same,Recovery,[4],98.5%
same,Measured,[5],18.6 ng/mL
same,Recovery,[5],74.4%
same,Measured,[6],47.9 ng/mL
same,Recovery,[6],95.8%
same,Measured,[7],99.3 ng/mL
same,Recovery,[7],99.3%
same,Recovery,"dark teas, added Fen standard 25 ng/mL",73.2–88.8%
same,Recovery,"dark teas, added Fen standard 100 ng/mL",96.7–99.8%
